Laboratory results reported in patent US20210139565A1 (GOVERNMENT OF THE UNITED STATES AS REPRESENTED BY THE …, published 2021).
Changes are numbered by the printed parent chain. No constants are given. Whether binding was seen depends on the method and setting. Some results given as binding are weak or reduced against the parent protein; the word gives no strength.

Sequences of proteins named here, by UniProt entry; tags and fusion partners are left off.
UniProt P0C7U7: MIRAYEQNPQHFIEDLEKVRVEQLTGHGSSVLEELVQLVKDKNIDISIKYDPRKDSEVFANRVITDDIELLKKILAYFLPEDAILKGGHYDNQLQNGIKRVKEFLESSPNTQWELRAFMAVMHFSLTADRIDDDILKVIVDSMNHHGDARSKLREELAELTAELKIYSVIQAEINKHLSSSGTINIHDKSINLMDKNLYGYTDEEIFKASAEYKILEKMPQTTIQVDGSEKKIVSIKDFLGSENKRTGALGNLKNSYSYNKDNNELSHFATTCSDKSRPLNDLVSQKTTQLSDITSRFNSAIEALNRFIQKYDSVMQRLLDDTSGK

B1: 1LCRV13 (VHH)
VHH: QVQLQESGGGLVRPGGSLKLSCAASGFTFNWYTMAWYRQVPGEERKMVATITGASGDTKYADSVKGRFTISRDNAKNTVTLQMNSLKPGDTAVYYCHAYLTYDSGSVKGVNYWGQGTQVTVSS
B2: 1LCRV81 (VHH)
VHH: B1 VHH with L11S, R13Q, F68S, Y99C
B3: 1LCRV32 (VHH)
VHH: QVQLQESGGGMVEPGGSLRLSCAASGFRFSSYAMSWVRQAPGKGLERVSAINSDGDKTSYADSVKGRFTISRDNARNTLYLQMSNLKPEDTAVYYCADRDLYCSGSMCKDVLGGARYDFRGQGTQVTVSS

Legend:
[1] = target: Y. pestis LcrV protein (Yersinia pestis KIM5) (UniProt P0C7U7); experiment: ELISA of periplasmic extract on LcrV antigen and on blank wells, OD405
[2] = target: Y. pestis LcrV protein (Yersinia pestis KIM5) (UniProt P0C7U7); experiment: SPR, BIACORE, LcrV immobilized on CM5 chip

| Binder | binding [1] | binding [2] |
| --- | --- | --- |
| B1 | binds | binds |
| B2 | binds | – |
| B3 | binds | – |
